The text below walks through data of patent US20230125690A1 (KYUNGPOOK NATIONAL UNIVERSITY INDUSTRY ACADEMIC COOPERATION …, published 2023).

Assay [1] addresses T1, mouse COX2 protein with acetylated S565 residue (mouse) (UniProt Q05769).
T1 sequence (acetylated serine at S565, looked up): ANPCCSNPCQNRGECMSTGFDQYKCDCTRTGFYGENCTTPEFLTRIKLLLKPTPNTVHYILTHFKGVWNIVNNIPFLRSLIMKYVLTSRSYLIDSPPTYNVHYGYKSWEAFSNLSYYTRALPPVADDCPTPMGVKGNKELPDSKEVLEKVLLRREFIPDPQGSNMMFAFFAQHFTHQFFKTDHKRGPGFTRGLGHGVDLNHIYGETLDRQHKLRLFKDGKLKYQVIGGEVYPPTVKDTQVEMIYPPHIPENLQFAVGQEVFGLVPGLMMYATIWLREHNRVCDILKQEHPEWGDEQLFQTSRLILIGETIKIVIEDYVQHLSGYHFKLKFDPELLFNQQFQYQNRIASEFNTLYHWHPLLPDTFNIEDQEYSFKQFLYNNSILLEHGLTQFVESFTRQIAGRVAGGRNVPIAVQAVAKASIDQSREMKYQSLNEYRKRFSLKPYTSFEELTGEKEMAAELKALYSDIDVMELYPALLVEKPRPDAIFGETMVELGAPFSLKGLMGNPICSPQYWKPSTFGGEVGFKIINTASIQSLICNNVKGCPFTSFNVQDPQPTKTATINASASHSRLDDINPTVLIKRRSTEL
Nature of the assay: immunofluorescence staining of mouse brain tissue sections.

The target in assay [2] is T1, mouse COX2 protein with acetylated S565 residue (mouse). Nature of the assay: sandwich ELISA on mouse PBMC lysates, plate coated with 44C7C8.
Assay [3] has the same target. Nature of the assay: sandwich ELISA on mouse PBMC lysates, plate coated with 9F7-2.

No constants are given. Whether binding was seen depends on the method and setting. Some binding calls cover weakened binding; strength is not graded here. *1 amine or outer side, *2 acyl side, *3 side chain or, on linkers, in order; H or OH if unused. Where no end group is shown, it is not given here. [ ]: non-standard residue; d: D form. Sac = acetylated serine, O-acetyl-L-serine, CC(=O)OC[C@H](N[*:1])C(=O)[*:2]

B1: monoclonal antibody 44C7C8 (antibody, V domains shown)
VH: DVQLQESGPGLVKPSQSLSLTCSVTGYSITSGYYWNWIRQFPGNKLEWMGYISYDGSNNYNPSLKNRISITRDTYKKQFFLKLNSVTTEDTATYYCARGADYYGNTYFYFDVWGAGTTVTVSS
VL: DIVMSQSPSSLAVSVEEKVNMSCKSSQSLLYSRNQKNYLAWYQQKPGQSPKLLIYWASTRESGVPDRFTGSGAGTDFTLTISSVKAEDLAVYYCQQYYTYPFTFGSGTKLEIK
notes: the isotype and constant regions are not; The methods call it 44C7F5 or 44C75F and the results call it 44C7C8; also called 44C7F5; 44C75F
Consider B1, for which the binding result in assay [1] and in assay [2] was “binds” each time.

B2: monoclonal antibody 9F7-2 (antibody, V domains shown)
VH: QVQLQQSGAELVRPGTSVKISCKASGYTFTDYLLGWVKQRPGHGLEWIGDIYPGGTYIKYNEKFKGKATLTADTSSSTAYMQLSSLTSEDSAVYFCARGRNDEKGDYWGQGTSVTVSS
VL: DVLMTQTPLSLPVSLGDQASISCRSSQSIVHRNGFTYLEWYLQKPGQSPKLLIYQVSNRFSGVPDRFSGSGSGTDFTLKISRVEAEDLGVYYCFQGSHVPPTFGGGTKLEIK
notes: Clones were screened for IgG expression; the isotype and constant regions are not
B2: the binding result in assay [1] and in assay [3] was “binds” each time.
